Source: patent publication US20210253718A1, “FRIZZLED5 PROTEIN-BINDING AGENTS” (Modmab Therapeutics Corporation, priority 2016, published 2021)
These are yes or no findings as the source states them, for the method shown. Some binding calls cover weakened binding; strength is not graded here. Where a sequence is shown, tags or fusion partners need not be part of it.

T1: FZD8-Fc (UniProt Q9H461)
T1 sequence (looked up): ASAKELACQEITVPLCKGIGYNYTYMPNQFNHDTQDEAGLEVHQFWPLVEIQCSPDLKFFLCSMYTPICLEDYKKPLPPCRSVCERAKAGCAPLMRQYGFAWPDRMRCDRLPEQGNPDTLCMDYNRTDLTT

B1: IgG-2910 (antibody, V domains shown)
VH: EVQLVESGGGLVQPGGSLRLSCAASGFNISYSYMHWVRQAPGKGLEWVASIYSSSSSTSYADSVKGRFTISADTSKNTAYLQMNSLRAEDTAVYYCARGAMDYWGQGTLVTVSS
VL: DIQMTQSPSSLSASVGDRVTITCRASQSVSSAVAWYQQKPGKAPKLLIYSASSLYSGVPSRFSGSRSGTDFTLTISSLQPEDFATYYCQQWYGSHLITFGQGTKVEIK
B2: IgG-2921 (antibody, V domains shown)
VH: EVQLVESGGGLVQPGGSLRLSCAASGFNISYYYIHWVRQAPGKGLEWVASIYPSSGSTSYADSVKGRFTISADTSKNTAYLQMNSLRAEDTAVYYCARGAMDYWGQGTLVTVSS
VL: DIQMTQSPSSLSASVGDRVTITCRASQSVSSAVAWYQQKPGKAPKLLIYSASSLYSGVPSRFSGSRSGTDFTLTISSLQPEDFATYYCQQWYAGSLITFGQGTKVEIK
B3: IgG-2929 (antibody, V domains shown)
VH: EVQLVESGGGLVQPGGSLRLSCAASGFNISYYYIHWVRQAPGKGLEWVASIYPSSSSTSYADSVKGRFTISADTSKNTAYLQMNSLRAEDTAVYYCARGAMDYWGQGTLVTVSS
VL: DIQMTQSPSSLSASVGDRVTITCRASQSVSSAVAWYQQKPGKAPKLLIYSASSLYSGVPSRFSGSRSGTDFTLTISSLQPEDFATYYCQQWYSSYGLITFGQGTKVEIK
B4: IgG-2919 (antibody, V domains shown)
VH: EVQLVESGGGLVQPGGSLRLSCAASGFNISYSYIHWVRQAPGKGLEWVASIYSSSGSTSYADSVKGRFTISADTSKNTAYLQMNSLRAEDTAVYYCARGAIDYWGQGTLVTVSS
VL: DIQMTQSPSSLSASVGDRVTITCRASQSVSSAVAWYQQKPGKAPKLLIYSASSLYSGVPSRFSGSRSGTDFTLTISSLQPEDFATYYCQQWYSSGHVLITFGQGTKVEIKR
B5: IgG-2920 (antibody, V domains shown)
VH: EVQLVESGGGLVQPGGSLRLSCAASGFNISYYYIHWVRQAPGKGLEWVASIYPSSGSTSYADSVKGRFTISADTSKNTAYLQMNSLRAEDTAVYYCARGGMDYWGQGTLVTVSS
VL: DIQMTQSPSSLSASVGDRVTITCRASQSVSSAVAWYQQKPGKAPKLLIYSASSLYSGVPSRFSGSRSGTDFTLTISSLQPEDFATYYCQQWFAGALITFGQGTKVEIK

What follows are binders tested against T1, FZD8-Fc (assay: SPR).

binding, binds:
B1
B2
B3
B4
B5

The binders below were run against T1, FZD8-Fc (assay: SPR, Frizzled-Fc chimera).

binding, binds:
B3
